Source: PubChem BioAssay AID1671190 (National Center for Advancing Translational Sciences (NCATS), 2021)
Values joined by “and” are separate entries in the source; they are usually repeats but may differ in a detail not shown here. Identical values can stand only once. In all, about 580,000 compounds went through this assay and about 6,100 (1.1%) were called active. Inconclusive results, whose numbers are uncertain, are shown with a selection of clear calls. Calls follow the shape of the dose curve; as a rule, active = well fitted inhibition curve with a large enough effect; inconclusive = small, poorly fitted or top-dose-only effect, or another doubt; inactive = no such curve, though single readings can be large or run the other way. A potency beside an inconclusive call is a rough fit, not a confirmed value.

The chains behind the UniProt entries cited, without tags or fusion partners. Where a name states a change or a piece, a line headed by the entry shows the natural chain unless it says otherwise.
UniProt P18054: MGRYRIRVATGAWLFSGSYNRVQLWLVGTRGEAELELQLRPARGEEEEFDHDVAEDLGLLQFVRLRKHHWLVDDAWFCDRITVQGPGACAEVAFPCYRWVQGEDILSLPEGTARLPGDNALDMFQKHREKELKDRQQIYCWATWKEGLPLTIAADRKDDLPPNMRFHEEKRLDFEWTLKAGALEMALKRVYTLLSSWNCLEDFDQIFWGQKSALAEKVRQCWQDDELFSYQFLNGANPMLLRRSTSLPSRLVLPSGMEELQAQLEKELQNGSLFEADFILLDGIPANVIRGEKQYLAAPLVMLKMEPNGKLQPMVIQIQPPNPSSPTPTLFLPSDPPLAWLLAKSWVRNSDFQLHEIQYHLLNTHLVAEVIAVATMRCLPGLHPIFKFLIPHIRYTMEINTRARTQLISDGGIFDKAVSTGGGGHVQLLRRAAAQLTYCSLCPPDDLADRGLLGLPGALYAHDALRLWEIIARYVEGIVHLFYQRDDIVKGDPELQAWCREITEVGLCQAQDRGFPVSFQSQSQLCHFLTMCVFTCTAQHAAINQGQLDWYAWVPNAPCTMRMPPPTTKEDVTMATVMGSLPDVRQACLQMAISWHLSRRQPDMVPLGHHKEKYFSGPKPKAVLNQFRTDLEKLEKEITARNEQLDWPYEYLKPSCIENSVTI

Target: Polyunsaturated fatty acid lipoxygenase ALOX12 (Homo sapiens) (UniProt P18054)
Assay: Primary qHTS assay for inhibitors of human arachidonate 12S-lipoxygenase (ALOX12): Round 2
Details: purified 12hLO, xylenol orange hydroperoxide absorbance; activity change, negative = inhibition: at 108 µM (top of the series) unless noted
In short: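 Hydroperoxide product was detected by ferrous iron/xylenol orange as the 573 to 405 nm absorbance ratio. Arachidonic acid at 40 uM (final) was turned over for 30 min at room temperature by 150 nM human 12hLO, pH 7.0 Hepes buffer, after 15 min compound preincubation.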
% is scaled to controls: 0 for no effect and ±100 for the full control effect; potency is read from the fitted curve at half-maximal effect.

Structure (SMILES)	activity change, negative = inhibition	Potency
COc1ccc(-c2cnc3[nH]cc(CC(=O)NC4CCC(O)CC4)c3c2)cc1 (stereo unspecified)	inactive: -13.4% [at 176 µM]	–
Cc1cccc(NC(=O)NCc2nc(-c3ccccc3)oc2C)c1C	–	inconclusive: 79.4 µM [inhibitor, partial curve, poor fit]
Cc1ccc(C(=O)N(CC(=O)NC2CCCC2)Cc2cccs2)s1	inactive: 2.53%	–
CC(=O)c1ccc(NC(=S)NCc2ccc(Cl)cc2Cl)cc1	–	inconclusive: 31.6 µM [inhibitor, partial curve, poor fit]
O=C(Nc1ccccc1)N1CCOC(CN(C(=O)c2ccco2)C2CCCC2)C1 (stereo unspecified)	inactive: 0.582%	–
Cc1ccc(N(C)C(=O)N2CCN(S(=O)(=O)c3c(C)cc(C)cc3C)CC2)cc1	–	inconclusive: 126 µM [inhibitor, partial curve, poor fit]
COC1CCN(Cc2ccc(C)cc2)CC1	inactive: -8.18%	–
O=C(Nc1ccc(O)c(-c2nc3ccccc3o2)c1)c1cccc(Cl)c1	inactive: 1.13%	–
Cc1cc(CN2CCC(N3CCNC3=O)CC2)no1	inactive: 8.02% [at 12.5 µM]	–
O=C(/C=C/c1ccccc1)OCC(=O)c1ccc(Br)s1	–	inconclusive: 56.2 µM [inhibitor, partial curve, poor fit]
CC1=CC(=O)C=C(C)C1=NOc1ccccc1[N+](=O)[O-]	inactive: -20.4%	–
CC(COc1ccccc1)CN1CCC(C(O)(c2ccccc2)c2ccccc2)CC1 (stereo unspecified)	–	inconclusive: 44.7 µM [inhibitor, partial curve, poor fit]
Brc1ccc(-c2nc(-c3ccc4c(c3)OCO4)no2)o1	–	inconclusive: 8.91 µM [inhibitor, full curve]
CC1=C(C(=O)N(C)C)CC(CC(=O)NCC2CCCCC2)C(=O)N1Cc1ccc(C(C)(C)C)cc1 (stereo unspecified)	inactive: -32.1%	–
CN(C)c1ccc(CC(=O)N2CCCCC2c2cc(C(=O)Nc3ccccc3Cl)no2)cc1 (stereo unspecified)	–	inconclusive: 11.2 µM [inhibitor, full curve, poor fit]
CC(Cc1cccs1)N(Cc1ccc(Cl)cc1)C(=O)C1CC1 (stereo unspecified)	–	inconclusive: 0.112 µM [inhibitor, full curve, poor fit]
COc1ccc(-c2nc3cnc(N4CCN(C)CC4)nc3n(Cc3cccs3)c2=O)cc1	–	inconclusive: 39.8 µM [inhibitor, partial curve, poor fit]
CN1CC[C@@H](c2c(O)cc(O)c3c(=O)cc(-c4ccccc4Cl)oc23)[C@@H](O)C1	–	inconclusive: 7.69 µM [inhibitor, partial curve]
CC1(c2ccc(Cl)cc2)CC(C)(C)N(C(=O)c2cccc(F)c2)c2ccccc21 (stereo unspecified)	–	inconclusive: 0.398 µM [inhibitor, full curve, poor fit]
COCCCn1c(-c2ccc(S(=O)(=O)N3CCOCC3)cc2)csc1=Nc1ccccc1	–	inactive and inconclusive: 56.2 µM [inhibitor, partial curve, poor fit]
CN(C)CCN1CCN(C2CN(Cc3cn(Cc4ccc(C(F)(F)F)cc4)nn3)S(=O)(=O)C2)CC1 (stereo unspecified)	–	inconclusive: 28.2 µM [inhibitor, full curve, poor fit]

Structure (SMILES)	activity change, negative = inhibition	Potency
COc1ccc(CNC(=O)c2cc3sccc3n2Cc2ccc(C)cc2)cc1	–	inconclusive: 56.2 µM [inhibitor, partial curve, poor fit]
CN(CC1CCN(CCc2cccc(C(F)(F)F)c2)CC1)C(=O)c1ccc(F)cc1F	–	inconclusive: 7.94 µM [inhibitor, full curve, poor fit]
O=C(c1ccccc1)N1CCN(CC(O)COC2CCCCC2)CC1 (stereo unspecified)	–	inconclusive: 28.2 µM [inhibitor, partial curve, poor fit]
O=C(NCCCN1CCOCC1)C(=O)NCC1OCCN1S(=O)(=O)c1ccc(Cl)cc1 (stereo unspecified)	–	inconclusive: 0.316 µM [inhibitor, full curve, poor fit]
Cc1cccc(Nc2nc3c(c(=O)[nH]c(=O)n3C)n2CC(=O)O)c1C	–	inconclusive: 50.1 µM [inhibitor, single point]
COC(=O)CNC(=O)c1cc(-c2ccccc2)nc2ccccc12	inactive: 5.14%	–
NC(=O)CSc1nnc(NC(=O)C2CC(=O)N(c3ccc(F)cc3)C2)s1 (stereo unspecified)	–	inconclusive: 50.1 µM [inhibitor, partial curve, poor fit]
CCc1ccc(C(NC(=O)Cn2nc(C)c3ccccc3c2=O)C(C)C)cc1 (stereo unspecified)	inconclusive: -31.2% [inhibitor]	–
O=C(/C=C/c1ccccc1)NC(NC(=S)Nc1cccc(Cl)c1)C(Cl)(Cl)Cl (stereo unspecified)	inactive: -1.15%	–
O=C1/C(=C/c2ccccc2O)SC(=S)N1Cc1cccnc1	–	inconclusive: 44.7 µM [inhibitor, partial curve, poor fit]
C=C(C)COc1ccc2c(=O)c(Oc3ccc(C(=O)OC)cc3)c(C)oc2c1	inactive: 8.55%	–
COc1ccc(Cl)cc1C(=O)N1CCC(c2n[nH]c(=O)n2-c2ccc(C)cc2)CC1	–	inconclusive: 35.5 µM [inhibitor, partial curve]
COc1ccc(/C=C2\Oc3c(ccc(OS(C)(=O)=O)c3C)C2=O)c(OC)c1	–	inconclusive: 70.8 µM [inhibitor, single point]
CC1CC1C(=O)Nc1nc2ccc(Cl)cc2s1 (stereo unspecified)	–	inconclusive: 126 µM [inhibitor, single point]
CCOC(=O)C1(CCOc2ccccc2)CCN(Cc2ccccc2O)CC1	–	inconclusive: 35.5 µM [inhibitor, partial curve, poor fit]
Cc1ccc(C(=O)Oc2cc(-c3ccc4c(c3)OCO4)cc(=O)c3c(C)oc(C)c23)cc1	–	inconclusive: 79.4 µM [inhibitor, partial curve, poor fit]
Cc1ccc(NC(=O)/C=C2\NC(=O)CS2)cc1	–	inconclusive: 56.2 µM [inhibitor, partial curve, poor fit]
CC(C)(C)c1cc(-c2nc(N)nc(N)n2)c(O)c(C(C)(C)C)c1	–	inconclusive: 50.1 µM [inhibitor, partial curve, poor fit]
CSc1cccc(NC(=O)c2ccc3c(c2)N(C)C2CCCCN2C3=O)c1 (stereo unspecified)	inactive: -9.87%	–
N#CC1=C(N)NC(SCc2ccccc2)=C(C#N)C12CCCC2	–	inconclusive: 39.8 µM [inhibitor, partial curve]
